Assay results: patent US20200140951A9, “Transcriptional system and uses thereof for single cell detection” (Université Laval, priority 2017, published 2020)
At least one compound was matched to its structure with a doubt left.

Experiments:
Format in all cases: cell-based
[1] = system: AR activity in LAPC4-GFP single cells; assay: Single cell treatment response, PSEBC-TSTA bioluminescence microscopy; settings: DHT 1 nM + antiandrogen 10 μM, 48 h
Method: Forty-eight hours post-infection, the cells were imaged after D-luciferin addition. […] GFP biofluorescence imaging was then performed every 5 h to track the cells. After 48 hours of treatment, luciferase imaging was repeated to determine the change in fl expression. […] The corresponding cells tracked and imaged by biofluorescence microscopy is also shown. […] LAPC4-GFP cells were infected with PCA3-3STA, treated and imaged as described in (A). (D) Upper panel: Scheme of the method used to isolate and image spiked PCa cells from blood. […] Every 5 h, GFP biofluorescence imaging was performed to track the cells. At 48 h, luminescence imaging was repeated to determine single cell fl expression changes. Lower panels: Biofluorescence and bioluminescence images of blood spiked-LAPC4-GFP cells transduced with PSEBC-TSTA after PCa cell isolation. (E) Bioluminescence microscopy quantification of single cell responses to AR-antagonists after PSEBC-TSTA transduction of PCa spiked cells (LAPC4-GFP). […]
Forty-eight hours after infection, the cells were imaged by adding D-luciferin and an exposure time of 15 secs per image under bioluminescence microscopy. […] After 48 hours, luminescence imaging was performed again on the same cells to determine the changes in fl activity. Relative grey intensity was quantified for n=10 cells in each treatment condition before and after treatment. […]

22Rv1 cells = assay: Viability assay (resazurin); settings: DHT 1 nM + antiandrogen 10 μM
Method: (§1) LAPC4, and 22Rv1 cells were seeded. […] The cells proliferation was measured using resazurin. Relative cell count=(Fluorescence at each time point÷fluorescence at 0 h). Data represents technical triplicates±SD.

LAPC4 cells [2] = assay: Viability assay (resazurin); settings: DHT 1 nM + antiandrogen 10 μM
Method: as §1

LAPC4 cells [3] = assay: Growth curves of PCa cells (cell counter); settings: DHT 1 nM + antiandrogen 10 μM; six days of culture

Structure (SMILES): CC(O)(CS(=O)(=O)c1ccc(F)cc1)C(=O)Nc1ccc(C#N)c(C(F)(F)F)c1 (stereo not shown) [Bic, bicalutamide]
- effect on DHT induction of sum of fl activity of ten single cells [1]: inhibited
- growth inhibition (resazurin proliferation) (22Rv1 cells): did not display inhibited growth
- growth inhibition (resazurin proliferation) (LAPC4 cells [2]): displayed inhibited growth
- growth inhibition (relative cell count) (LAPC4 cells [3]): growth inhibited
